From PMC12116747
No constants are given. Whether binding was seen depends on the method and setting. For some of these results: Binding seen in cells or lysates may run through a third protein. Some results given as binding are weak or reduced against the parent protein; the word gives no strength.

Chains of the proteins cited; added tags and fusions are not shown. Lines headed by an entry give the natural chain unless they say otherwise; changes in a name come on top.
UniProt O43809: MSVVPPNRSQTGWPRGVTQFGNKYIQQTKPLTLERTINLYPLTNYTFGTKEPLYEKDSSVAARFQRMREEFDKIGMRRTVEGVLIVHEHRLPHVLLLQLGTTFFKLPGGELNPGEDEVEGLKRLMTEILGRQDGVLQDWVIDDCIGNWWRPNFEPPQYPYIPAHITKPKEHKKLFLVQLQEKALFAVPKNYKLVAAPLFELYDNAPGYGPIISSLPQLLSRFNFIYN
UniProt Q16630: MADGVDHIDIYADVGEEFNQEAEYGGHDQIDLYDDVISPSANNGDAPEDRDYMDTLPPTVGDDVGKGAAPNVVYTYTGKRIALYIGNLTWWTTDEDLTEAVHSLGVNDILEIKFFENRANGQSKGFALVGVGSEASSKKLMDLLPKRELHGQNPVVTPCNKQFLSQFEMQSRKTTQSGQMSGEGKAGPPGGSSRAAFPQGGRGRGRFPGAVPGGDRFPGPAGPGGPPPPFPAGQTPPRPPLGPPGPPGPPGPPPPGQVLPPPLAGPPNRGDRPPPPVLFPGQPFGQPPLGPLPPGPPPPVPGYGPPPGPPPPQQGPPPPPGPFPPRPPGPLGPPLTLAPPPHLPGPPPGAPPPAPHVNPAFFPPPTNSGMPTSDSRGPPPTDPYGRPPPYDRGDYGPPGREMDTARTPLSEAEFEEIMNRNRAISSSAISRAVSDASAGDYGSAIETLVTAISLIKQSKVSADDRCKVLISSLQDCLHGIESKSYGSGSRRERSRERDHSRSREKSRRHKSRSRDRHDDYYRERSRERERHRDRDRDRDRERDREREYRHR
UniProt Q92769: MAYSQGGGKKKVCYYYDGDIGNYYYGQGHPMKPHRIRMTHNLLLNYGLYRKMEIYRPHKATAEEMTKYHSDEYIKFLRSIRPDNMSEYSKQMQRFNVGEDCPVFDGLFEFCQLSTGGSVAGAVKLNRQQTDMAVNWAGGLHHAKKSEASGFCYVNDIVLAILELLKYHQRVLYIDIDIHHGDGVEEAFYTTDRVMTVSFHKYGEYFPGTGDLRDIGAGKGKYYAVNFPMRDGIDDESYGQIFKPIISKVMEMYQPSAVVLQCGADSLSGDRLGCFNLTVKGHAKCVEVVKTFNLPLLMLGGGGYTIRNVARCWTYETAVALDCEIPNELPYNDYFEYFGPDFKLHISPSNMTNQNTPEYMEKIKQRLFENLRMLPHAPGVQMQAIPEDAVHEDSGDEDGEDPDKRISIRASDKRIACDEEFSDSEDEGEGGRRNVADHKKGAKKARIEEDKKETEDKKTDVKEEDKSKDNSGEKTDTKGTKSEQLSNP

How the values were obtained:
[1] = target: WT NUDT21 (Flag-tagged, expressed in KYSE30 cells) (human) (UniProt O43809); assay: co-IP; Co-IP in KYSE30 cells; IP lysis buffer, beads overnight at 4 °C, Western blot; cells treated with L-lactate (20 mM), oxamate (20 mM), acetate (10 mM), β-alanine (100 mM), AARS1-HA, HDAC2 siRNA, or transfected with NUDT21 WT, K23R or K56R plasmids
[2] = target: NUDT21 (in KYSE30 cells, Co-IP of Fig. 4a-e) (human) (UniProt O43809); assay: as above
[3] = target: NUDT21 K56R mutant (expressed in KYSE30 cells) (human) (UniProt O43809); assay: as above
[4] = target: NUDT21 K23R mutant (expressed in KYSE30 cells) (human) (UniProt O43809); assay: as above
[5] = target: WT NUDT21 (Flag-tagged, expressed in KYSE30 cells) (human) (UniProt O43809); assay: proximity ligation; Duolink PLA in KYSE30 cells with anti-Flag (NUDT21) and anti-CPSF6; cells treated with saline, L-lactate (20 mM) or oxamate (20 mM); nuclear foci, n = 50 cells
[6] = target: lactylated NUDT21 (purified from cells treated with L-lactate) (human) (UniProt O43809); assay: pull-down; in vitro pull-down of CPSF6 with NUDT21 purified from cells pre-treated with oxamate and then treated with L-lactate or acetate; both purified
[7] = target: NUDT21 (in 293T cells, Co-IP) (human) (UniProt O43809); assay: co-IP; Co-IP in 293T cells; IP lysis buffer, beads overnight at 4 °C, Western blot

## CPSF6 (in KYSE30 cells) (from UniProt Q16630 1-551)
[1]
  binding: binds
[2]
  binding: binds
[3]
  binding: binds
[4]
  binding: binds
[5]
  binding: binds

## CPSF6 (purified recombinant protein) (from UniProt Q16630 1-551)
[6]
  binding: binds

## HDAC2 (in 293T cells, Co-IP) (from UniProt Q92769 1-488) (enzyme)
[7]
  binding: binds
